Literature values in patent EP0331471A1, “High molecular weight prodrug derivatives of antiinflammatory drugs” (Larsen, Claus Selch, priority 1988, dated 1989).
Like-named read-outs stand apart in the source and are kept apart here.

Settings: pigs, from a previous study (8), cited from earlier work
[1] = i.v., 3.6 mg naproxen equivalents

SMILES: COc1ccc2cc([C@H](C)C(=O)O)ccc2c1 [NAPROXEN, (+)-2-(6-methoxy-2-napthyl)propionic acid]
- AUC [1]: 479 µg·h/mL
- Cmax [1]: 35000 ng/mL
- Cmax (naproxen in plasma, p.o., 3.6 mg naproxen equivalents): 19700 ng/mL
- AUC (naproxen in plasma, p.o.): 439 µg·h/mL
- Tmax (naproxen in plasma, p.o.): 2 h
